Assay results as given in article PMC6632053, “Incorporation of Putative Helix-Breaking Amino Acids in the Design of Novel Stapled Peptides: Exploring Biophysical and Cellular Permeability Properties” (Molecules, 2019).

Tested on: p53 responsive β-lactamase reporter in HCT116 cells
Test: p53 beta-lactamase reporter gene cellular functional assay
Type: cell-based
Details: Table 1; cellular EC50/Mdm2 Kd
Description: HCT116 cells were stably transfected with a p53 responsive β-lactamase reporter and were seeded into a 384-well plate at a density of 8000 cells per well. Cells were maintained in McCoy’s 5A Medium with 10% fetal bovine serum (FBS), Blasticidin, and Penicillin/Streptomycin. The cells were incubated overnight, followed by removal of cell growth media and replacement with Opti-MEM either containing 0% FBS or 10% FBS. […] The final working concentration of DMSO was 0.5%. β-lactamase activity was detected using the ToxBLAzer Dual Screen (Invitrogen), as per the manufacturer’s instructions. Measurements were made using the Envision multiplate reader (Perkin–Elmer).

Row | SMILES | Ratio (fold-shift between the binding affinity and cellular activity)
1 | CC(=O)N[C@@H](CC(C)C)C(=O)N[C@H](C(=O)N[C@@H](Cc1ccccc1)C(=O)NC(C)(C)C(=O)N[C@H](CCC(=O)O)C(=O)N[C@@H](Cc1ccc(O)cc1)C(=O)N[C@@H](Cc1c[nH]c2ccccc12)C(=O)N[C@@H](CCC(N)=O)C(=O)N[C@@H](CC(C)C)C(=O)N[C@@H](CC1CCC1)C(=O)NC(C)(C)C(=O)N[C@@H](CO)C(=O)N[C@@H](C)C(=O)N[C@@H](C)C(N)=O)[C@@H](C)O [Linear E5(D-Glu)] | >370
2 | CC(=O)N[C@H](CC(C)C)C(=O)N[C@H](C(=O)N[C@@H](Cc1ccccc1)C(=O)NC(C)(C)C(=O)N[C@@H](CCC(=O)O)C(=O)N[C@@H](Cc1ccc(O)cc1)C(=O)N[C@@H](Cc1c[nH]c2ccccc12)C(=O)N[C@@H](CCC(N)=O)C(=O)N[C@@H](CC(C)C)C(=O)N[C@@H](CC1CCC1)C(=O)NC(C)(C)C(=O)N[C@@H](CO)C(=O)N[C@@H](C)C(=O)N[C@@H](C)C(N)=O)[C@@H](C)O [Linear L1(D-Leu)] | >180
3 | CC(=O)N[C@@H](CC(C)C)C(=O)N[C@H](C(=O)N[C@@H](Cc1ccccc1)C(=O)NC(C)(C)C(=O)N[C@@H](CCC(=O)O)C(=O)N[C@@H](Cc1ccc(O)cc1)C(=O)N[C@@H](Cc1c[nH]c2ccccc12)C(=O)N[C@@H](CCC(N)=O)C(=O)N[C@H](CC(C)C)C(=O)N[C@@H](CC1CCC1)C(=O)NC(C)(C)C(=O)N[C@@H](CO)C(=O)N[C@@H](C)C(=O)N[C@@H](C)C(N)=O)[C@@H](C)O [Linear L9(D-Leu)] | >568
4 | CC(=O)N[C@@H](CC(C)C)C(=O)N[C@H](C(=O)N[C@@H](Cc1ccccc1)C(=O)NC(C)(C)C(=O)N[C@@H](CCC(=O)O)C(=O)N[C@@H](Cc1ccc(O)cc1)C(=O)N[C@@H](Cc1c[nH]c2ccccc12)C(=O)N[C@@H](CCC(N)=O)C(=O)N[C@@H](CC(C)C)C(=O)N[C@@H](CC1CCC1)C(=O)NC(C)(C)C(=O)N[C@@H](CO)C(=O)N[C@@H](C)C(=O)N[C@@H](C)C(N)=O)[C@@H](C)O [Linear Parent (MP-189), Ac–Leu–Thr–Phe–Aib–Glu–Tyr–Trp–Gln–Leu–Cba–Aib–Ser–Ala–Ala–NH2] | 777
5 | CC(=O)N[C@@H](CC(C)C)C(=O)N[C@H](C(=O)N[C@@H](Cc1ccccc1)C(=O)N[C@]1(C)CCCCCCC=CCCC[C@@](C)(C(=O)N[C@@H](CO)C(=O)N[C@@H](C)C(=O)N[C@@H](C)C(N)=O)NC(=O)[C@H](CC2CCC2)NC(=O)[C@H](CC(C)C)NC(=O)[C@H](CCC(N)=O)NC(=O)[C@H](Cc2c[nH]c3ccccc23)NC(=O)[C@H](Cc2ccc(O)cc2)NC(=O)[C@H](C)NC1=O)[C@@H](C)O [Peptide E5A] (Ac-LTF[R8]AYWQL[Cba][S5]SAA-NH2; staple 4-11) | 6
6 | CC(=O)N[C@@H](CC(C)C)C(=O)N[C@H](C(=O)N[C@@H](C)C(=O)N[C@]1(C)CCCCCCC=CCCC[C@@](C)(C(=O)N[C@@H](CO)C(=O)N[C@@H](C)C(=O)N[C@@H](C)C(N)=O)NC(=O)[C@H](CC2CCC2)NC(=O)[C@H](CC(C)C)NC(=O)[C@H](CCC(N)=O)NC(=O)[C@H](Cc2c[nH]c3ccccc23)NC(=O)[C@H](Cc2ccc(O)cc2)NC(=O)[C@H](CCC(=O)O)NC1=O)[C@@H](C)O [Peptide F3A] (Ac-LTA[R8]EYWQL[Cba][S5]SAA-NH2; staple 4-11) | 10
7 | CC(=O)N[C@@H](C)C(=O)N[C@H](C(=O)N[C@@H](Cc1ccccc1)C(=O)N[C@]1(C)CCCCCCC=CCCC[C@@](C)(C(=O)N[C@@H](CO)C(=O)N[C@@H](C)C(=O)N[C@@H](C)C(N)=O)NC(=O)[C@H](CC2CCC2)NC(=O)[C@H](CC(C)C)NC(=O)[C@H](CCC(N)=O)NC(=O)[C@H](Cc2c[nH]c3ccccc23)NC(=O)[C@H](Cc2ccc(O)cc2)NC(=O)[C@H](CCC(=O)O)NC1=O)[C@@H](C)O [Peptide L1A] (Ac-ATF[R8]EYWQL[Cba][S5]SAA-NH2; staple 4-11) | 28
8 | CC(=O)N[C@@H](CC(C)C)C(=O)N[C@H](C(=O)N[C@@H](Cc1ccccc1)C(=O)N[C@]1(C)CCCCCCC=CCCC[C@@](C)(C(=O)N[C@@H](CO)C(=O)N[C@@H](C)C(=O)N[C@@H](C)C(N)=O)NC(=O)[C@H](CC2CCC2)NC(=O)[C@H](C)NC(=O)[C@H](CCC(N)=O)NC(=O)[C@H](Cc2c[nH]c3ccccc23)NC(=O)[C@H](Cc2ccc(O)cc2)NC(=O)[C@H](CCC(=O)O)NC1=O)[C@@H](C)O [Peptide L9A] (Ac-LTF[R8]EYWQA[Cba][S5]SAA-NH2; staple 4-11) | 13
9 | CC(=O)N[C@@H](CC(C)C)C(=O)N[C@H](C(=O)N[C@@H](Cc1ccccc1)C(=O)N[C@]1(C)CCCCCCC=CCCC[C@@](C)(C(=O)N[C@@H](CO)C(=O)N[C@@H](C)C(=O)N[C@@H](C)C(N)=O)NC(=O)[C@H](CC2CCC2)NC(=O)[C@H](CC(C)C)NC(=O)[C@H](C)NC(=O)[C@H](Cc2c[nH]c3ccccc23)NC(=O)[C@H](Cc2ccc(O)cc2)NC(=O)[C@H](CCC(=O)O)NC1=O)[C@@H](C)O [Peptide Q8A] | 4

Same assay, conditions: Table 2; cellular EC50/Mdm2 Kd

Row | SMILES | Ratio (fold-shift between the binding affinity and cellular activity)
10 | CC(=O)N[C@@H](CCCCN=[N+]=[N-])C(=O)NCCC(=O)N[C@@H](CC(C)C)C(=O)N[C@H](C(=O)N[C@@H](Cc1ccccc1)C(=O)N[C@]1(C)CCCCCCC=CCCC[C@@](C)(C(=O)N[C@@H](CO)C(=O)N[C@@H](C)C(=O)N[C@@H](C)C(N)=O)NC(=O)[C@H](CC2CCC2)NC(=O)[C@H](CCC(N)=O)NC(=O)[C@H](C)N(C)C(=O)[C@H](Cc2c[nH]c3ccccc23)NC(=O)[C@H](Cc2ccc(O)cc2)NC(=O)[C@H](CCC(=O)O)NC1=O)[C@@H](C)O [A8(N-methyl L-Ala)] | >75
11 | CC(=O)N[C@@H](CCCCN=[N+]=[N-])C(=O)NCCC(=O)N[C@@H](CC(C)C)C(=O)N[C@H](C(=O)N[C@@H](Cc1ccccc1)C(=O)N[C@]1(C)CCCCCCC=CCCC[C@@](C)(C(=O)N[C@@H](C)C(=O)NC(C)(C)C(=O)N[C@@H](C)C(N)=O)NC(=O)[C@H](CC2CCC2)NC(=O)[C@H](CCC(N)=O)NC(=O)[C@H](C)NC(=O)[C@H](Cc2c[nH]c3ccccc23)NC(=O)[C@H](Cc2ccc(O)cc2)NC(=O)[C@H](CCC(=O)O)NC1=O)[C@@H](C)O [A13(Aib)] (Ac-[Lys(N3)][βAla]LTF[R8]EYWAQ[Cba][S5]A[Aib]A-NH2; staple 6-13) | 23
12 | CC(=O)N[C@@H](CCCCN=[N+]=[N-])C(=O)NCCC(=O)N[C@@H](CC(C)C)C(=O)N[C@H](C(=O)N[C@@H](Cc1ccccc1)C(=O)N[C@]1(C)CCCCCCC=CCCC[C@@](C)(C(=O)N[C@@H](CO)C(=O)N(C)[C@@H](C)C(=O)N[C@@H](C)C(N)=O)NC(=O)[C@H](CC2CCC2)NC(=O)[C@H](CCC(N)=O)NC(=O)[C@H](C)NC(=O)[C@H](Cc2c[nH]c3ccccc23)NC(=O)[C@H](Cc2ccc(O)cc2)NC(=O)[C@H](CCC(=O)O)NC1=O)[C@@H](C)O [A13(N-methyl L-Ala)] | 158
13 | CC(=O)N[C@@H](CCCCN=[N+]=[N-])C(=O)NCCC(=O)NCC(=O)N[C@H](C(=O)N[C@@H](Cc1ccccc1)C(=O)N[C@]1(C)CCCCCCC=CCCC[C@@](C)(C(=O)N[C@@H](CO)C(=O)N[C@@H](C)C(=O)N[C@@H](C)C(N)=O)NC(=O)[C@H](CC2CCC2)NC(=O)[C@H](CCC(N)=O)NC(=O)CNC(=O)[C@H](Cc2c[nH]c3ccccc23)NC(=O)[C@H](Cc2ccc(O)cc2)NC(=O)CNC1=O)[C@@H](C)O [L1G, E5G, A8G] (Ac-[Lys(N3)][βAla]GTF[R8]GYWGQ[Cba][S5]SAA-NH2; staple 6-13) | 34
14 | CC(=O)N[C@@H](CCCCN=[N+]=[N-])C(=O)NCCC(=O)N[C@@H](CC(C)C)C(=O)N[C@H](C(=O)N[C@@H](Cc1ccccc1)C(=O)N[C@]1(C)CCCCCCC=CCCC[C@@](C)(C(=O)N[C@@H](CO)C(=O)N[C@@H](C)C(=O)N[C@@H](C)C(N)=O)NC(=O)[C@H](CC2CCC2)NC(=O)[C@H](CCC(N)=O)NC(=O)[C@H](C)NC(=O)[C@H](Cc2c[nH]c3ccccc23)NC(=O)[C@H](Cc2ccc(O)cc2)NC(=O)CNC1=O)[C@@H](C)O [Peptide E5G] | 4
15 | CC(=O)N[C@@H](CCCCN=[N+]=[N-])C(=O)NCCC(=O)NCC(=O)N[C@H](C(=O)N[C@@H](Cc1ccccc1)C(=O)N[C@]1(C)CCCCCCC=CCCC[C@@](C)(C(=O)N[C@@H](CO)C(=O)N[C@@H](C)C(=O)N[C@@H](C)C(N)=O)NC(=O)[C@H](CC2CCC2)NC(=O)[C@H](CCC(N)=O)NC(=O)[C@H](C)NC(=O)[C@H](Cc2c[nH]c3ccccc23)NC(=O)[C@H](Cc2ccc(O)cc2)NC(=O)[C@H](CCC(=O)O)NC1=O)[C@@H](C)O [Peptide L1G] | 73
16 | CC(=O)N[C@@H](CCCCN=[N+]=[N-])C(=O)NCCC(=O)N1CCC[C@H]1C(=O)N[C@H](C(=O)N[C@@H](Cc1ccccc1)C(=O)N[C@]1(C)CCCCCCC=CCCC[C@@](C)(C(=O)N[C@@H](CO)C(=O)N[C@@H](C)C(=O)N[C@@H](C)C(N)=O)NC(=O)[C@H](CC2CCC2)NC(=O)[C@H](CCC(N)=O)NC(=O)[C@H](C)NC(=O)[C@H](Cc2c[nH]c3ccccc23)NC(=O)[C@H](Cc2ccc(O)cc2)NC(=O)[C@H](CCC(=O)O)NC1=O)[C@@H](C)O [Peptide L1P] | 34

Bridge positions count the residues as written; N and C are the ends. Square brackets hold non-standard residues; d marks the D form. Peptide text beside a SMILES is read from it. Lys(N3) = [N-]=[N+]=NCCCC[C@H](N)C(=O)O; R8 = C=CCCCCCC[C@@](C)(N)C(=O)O; Cba = N[C@@H](CC1CCC1)C(=O)O; S5 = C=CCCC[C@](C)(N)C(=O)O; Aib = CC(C)(N)C(=O)O; βAla = NCCC(=O)O
